The values are deposited in ChEMBL (CHEMBL3988442, “University of Dundee, Small-Polar-MMV Screening Library” (2021)).

Chains of the proteins cited; added tags and fusions are not shown.
UniProt E9BF75, entry or part of it: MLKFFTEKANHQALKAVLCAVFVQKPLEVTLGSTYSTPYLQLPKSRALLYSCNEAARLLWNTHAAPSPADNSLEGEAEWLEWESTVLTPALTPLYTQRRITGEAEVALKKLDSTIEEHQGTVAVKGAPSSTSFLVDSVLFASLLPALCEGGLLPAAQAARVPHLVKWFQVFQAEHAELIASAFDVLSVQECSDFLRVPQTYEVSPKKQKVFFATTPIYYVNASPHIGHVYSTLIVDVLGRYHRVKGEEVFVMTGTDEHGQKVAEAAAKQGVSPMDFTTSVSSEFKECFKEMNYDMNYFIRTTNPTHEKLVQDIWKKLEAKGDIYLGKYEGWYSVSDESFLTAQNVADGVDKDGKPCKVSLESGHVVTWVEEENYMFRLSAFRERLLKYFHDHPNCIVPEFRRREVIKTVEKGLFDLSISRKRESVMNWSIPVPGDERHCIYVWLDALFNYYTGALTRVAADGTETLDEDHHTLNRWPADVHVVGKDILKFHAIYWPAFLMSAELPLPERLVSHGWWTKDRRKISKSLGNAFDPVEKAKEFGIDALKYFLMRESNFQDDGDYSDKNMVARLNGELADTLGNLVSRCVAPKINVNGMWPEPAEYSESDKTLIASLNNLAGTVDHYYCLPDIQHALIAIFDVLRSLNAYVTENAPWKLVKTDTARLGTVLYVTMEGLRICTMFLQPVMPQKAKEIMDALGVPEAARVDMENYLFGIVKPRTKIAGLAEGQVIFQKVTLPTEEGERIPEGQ

All values are in %.
The record does not define 0% and 100%; most values in the screen are far below 50% and negative numbers occur (in some assays of this library far below -100).
This is an unselected part of the compounds tested.
A dash means the value is not listed here; it may have been measured.

LdMetRS: 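Methionyl-tRNA synthetase (putative), Leishmania donovani (UniProt E9BF75). Primary screen of methionyl-tRNA synthetase; the read-out is not stated. The test concentration is not given. The values are filed as inhibition. Of about 68,000 compounds tested this way, about 24 (0.035%) reached 50% or more in at least one test.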
Mtb heat-shock: 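Assay on Mycobacterium tuberculosis, filed only as a heat shock assay from Cornell; the read-out is not stated. The concentration is filed as 10 mM, unlikely as a test dose, so the dose is not known. Higher reads as stronger inhibition (inferred: compounds with an IC50 in retests scored well above the rest). Size under these conditions: about 69,000 compounds, about 930 of them at 50% or above in at least one test.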

structure,LdMetRS,Mtb heat-shock
Cc1ncsc1C(=O)NCCNc1cnccn1,10.31,-1.273
COc1ccccc1NC(=O)CSC1CCc2ccccc2NC1=O (stereo not given),11.11,2.123
CCn1nc2c(cc1=O)CN(Cc1nc(-c3cccs3)no1)CC2,20.52,-6.013
Cc1noc(C)c1C(=O)NCCN1CCN(c2ccccc2)CC1,7.94,21.75
Cc1cc(NC(=O)N(CCC#N)CCCN(C)C)ccc1F,17.17,-8.434
Cc1ccnc(CC(C)N(C)Cc2ccc3c(c2)CCO3)c1 (stereo not given),5.344,-33.31
COc1ccc(CN2CCC3(CC2)NC(=O)CC3c2cnn(C)c2)cc1 (stereo not given),0,-
Cc1noc(C)c1CCCNc1cnccn1,16.09,-12.49
CC(=O)Nc1ccn(Cc2ccccc2)n1,7.914,-5.732
C[C@@H](CO)Nc1cc(-c2cn[nH]c2)ncn1,3.641,-16.4
CC(C)(C)C(=O)NCCc1cc(N2CCOCC2)nc(NC2CC2)n1,11.63,-7.534
Cc1nc(-c2cnn(C)c2)nc2c1CN(C(=O)c1ccc[nH]1)CC2,12.04,-4.167
CN1CCN(c2ncc3c(=O)n(Cc4ccco4)ccc3n2)CC1,25.41,9.71
NC(=O)c1ccc2c(c1)nc1n2CCN(Cc2ccco2)C1,16.9,9.147
O=C(O)C(F)(F)F.O=C1Nc2ccccc2C12CCN(c1nccs1)CC2,-,-0.7259
CC(C)(CC(=O)N(CC(N)=O)C1CCCC1)c1ccccc1,14.25,7.118
Cc1nnc(N2CC[C@@H](OCC3CC3)[C@@H](Cc3ccccc3)C2)s1.O=C(O)C(F)(F)F,-,31.82
[H][C@@]12C[C@@H](O)C[C@]1([H])CN(Cc1cc(C(C)(C)C)ccc1OCC(N)=O)C2,-,8.886
Cl.c1cnc2c(c1)cc([C@@H]1CCCO1)n2CCN1CCOCC1,-,-5.094
CN1CCC(Cc2noc(-c3cn(Cc4ccccc4Cl)nn3)n2)CC1,0.2597,-3.083
CC(C)NC(=O)N1Cc2nccn2CC(COc2cccnc2)C1.O=C(O)C(F)(F)F (stereo not given),-,-13.64
CCNC(=O)[C@@H]1C[C@@H](N)CN1Cc1ccc(Sc2ccc(C)cc2)o1,14.1,5.559
c1ccc(-c2ccc3nc(C4CCN(CC5CC5)CC4)nn3c2)cc1,11.5,-
[H][C@]12CC[C@]([H])(CN(S(=O)(=O)N(C)C)C1)N(C(=O)c1cn(C)nc1C)C2,-,5.123
Cn1cc(CN(CC2(O)CCNC2)C2CCCCC2)cn1 (stereo not given),14.02,-8.398
O=C(O)C(F)(F)F.[H][C@@]12CN(C(C)=O)CCO[C@]1([H])CN(S(=O)(=O)c1cccnc1)C2,-,22.17
CCOCC1CN(Cc2cnn(C)c2)Cc2c1cnn2CC.O=C(O)C(F)(F)F (stereo not given),-,-24.32
CCN(Cc1ccc2c(c1)OCCO2)C(=O)NCc1cc[nH]n1,18.06,2.076
Cc1nsc(NC(=O)N2CCc3sccc3C2)n1,9.577,11.58
O=C(C1COc2ccccc2C1)N(CCO)Cc1ccccc1 (stereo not given),5.226,-3.389
CCNC(=O)NC(C)c1nc(-c2ccc(Br)cc2)no1 (stereo not given),11.11,0.1853
O=C(O)C(F)(F)F.[H][C@]12CCN(c3ccccn3)[C@@]1([H])CC[C@@H](COCc1csc(C)n1)O2,-,-8.365
CCc1cnc(C)nc1NCC(O)CN1CCCCCC1 (stereo not given),11.29,-51.67
O=C(NC[C@@]1(COc2cnccn2)C[C@@H](O)[C@@H](O)C1)C1CCOCC1,12.78,-
COc1nc(C)c(C(=O)N2CCC(C(O)Cc3ccccc3)CC2)s1 (stereo not given),7.572,-14.49
CCN(CCN(C)C)c1nc(CCN)nc2sc(C)c(C)c12,36.25,91.54
CCn1ccnc1S(=O)(=O)Cc1c(C)cc(C)c(C(C)=O)c1C,8.967,5.476
Cc1nc(CN2CCc3ncnc(-c4ccccc4)c3CC2)cs1,18.73,-
CC(C)CCn1[nH]c(CNc2ccc(F)cc2)nc1=O,14.16,-8.495
CN(C)C(=O)CN1CCCC2(CCN(c3ccsc3)C2=O)C1.O=C(O)C(F)(F)F (stereo not given),-,-10.79
Cc1cc(O)c(OCC(=O)Nc2nccs2)cn1,14.73,4.143
COCc1nn(C)c2c1CN(C(=O)c1ccno1)CC2,5.882,0.6718
CCN1CC(C(=O)NC(C)(C)CC(C)(C)C)CC1=O (stereo not given),8.55,3.126
Cc1ccccc1CN(CCO)Cc1ncc[nH]1,13.07,0.6336
CC(C)OCCN1CCN(C(C)c2nc(C3CC3)no2)CC1 (stereo not given),1.587,-26.06
Cc1ccc(-c2csc3c(=O)[nH]c(N4CCCC(C(N)=O)C4)nc23)cc1 (stereo not given),9.353,23.38
CC(C(=O)O)N1CC2(CCC1=O)CCN(C/C=C/c1ccccc1)CC2 (stereo not given),6.863,-29.33
O=C(Cn1cccc2cc(-c3ccc(F)cc3)nc1-2)N1CCC(O)CC1,12.03,-13.39
CCNC(c1cccnc1)c1ccc(F)c(C)c1 (stereo not given),16.52,-1.894
CSc1ncc(C(=O)N2C[C@H]3CC[C@@H]2CN(S(=O)(=O)N(C)C)C3)cn1,19.94,-
Cc1cc(C)nc(N2CCC(CNC(=O)c3cnccn3)CC2)n1,18.01,-5.377
O=C(c1ccc(-c2nc[nH]n2)cc1)N1CCOC(C(F)(F)F)C1 (stereo not given),11.62,4.547
COCCN(Cc1cccc(O)c1)Cc1ccccc1F,11.54,-16.24
CCc1ccc(C2COCCN2C(=O)Nc2cccc(C(C)=O)c2)o1 (stereo not given),17.42,0.2246
N#Cc1ccc(OCCN2CCNC(=O)C2c2cccs2)cc1 (stereo not given),16.07,7.749
COCCNC(=O)c1cn(C(C)(C)C)c2ncccc12,5.245,84.66
Cc1nn(C)c2c(=O)n(CC(=O)NC3CCCCC3)ccc12,11.27,7.732
Cc1cc(N(C)C)nc(C2CCCN2)n1 (stereo not given),8.228,-
CC1CCCN(C(=O)Nc2ccc(F)c(C(N)=O)c2)C1 (stereo not given),10.08,-2.789
COc1ccc(C[C@H]2CN(C(=O)C3CC3)CC[C@H]2OC)cc1,9.524,-20.01
Cl.O=C(CN1CCC[C@@H]1C(=O)O)NCCOc1cccc(C(F)(F)F)c1,-,-14.91
COc1ncccc1CNC(=O)NC(C)Cn1cccn1 (stereo not given),21.1,-4.272
Brc1cnc(NCCCOCC2CCOC2)nc1 (stereo not given),12.78,26.32
Cc1noc(CCCC(=O)N(CCC(=O)O)Cc2ccc(F)c(F)c2)n1,7.859,4.707
O=C(O)C(F)(F)F.[H][C@@]12CCN(Cc3cccs3)[C@]1([H])CC[C@@H](C(=O)N1CCCCO1)O2,-,-17.25
CNC(=O)C1CN(Cc2cc(C)on2)CCN(C2CCOCC2)C1 (stereo not given),15.43,16.3
COc1ccc(CNCC2CCN(CC(C)O)CC2)c2ccccc12 (stereo not given),10.43,19.9
Cc1nc(CN2C(=O)CC[C@@H]3[C@H]2CCN3C(=O)c2ccccn2)cs1,12.38,-
CCC(C)C(=O)Nc1ccc(CCN2CCOCC2)cc1 (stereo not given),17.34,-18.4
Cc1nc(C)n(CC2CCCN2Cc2ncc(C(C)(C)C)o2)n1 (stereo not given),24.22,8.269
CN(C)C(=O)NCc1cc(=O)n2c(n1)CN(Cc1ccoc1)CCC2,13.5,-
CCn1cnnc1CNC(=O)N1CCN(Cc2ccsc2)CC1,12.15,10.76
O=C(O)C(F)(F)F.c1cc(C2CC2)n2cnc(C3CN(Cc4nccs4)CCO3)c2c1 (stereo not given),-,-0.6834

Repeated from the top, 4 entries:

With Cc1ncsc1C(=O)NCCNc1cnccn1 the screen gave LdMetRS: 10.31%; Mtb heat-shock: -1.273%.
With COc1ccccc1NC(=O)CSC1CCc2ccccc2NC1=O (stereo not given) the screen gave LdMetRS: 11.11%; Mtb heat-shock: 2.123%.
With CCn1nc2c(cc1=O)CN(Cc1nc(-c3cccs3)no1)CC2 the screen gave LdMetRS: 20.52%; Mtb heat-shock: -6.013%.
With Cc1noc(C)c1C(=O)NCCN1CCN(c2ccccc2)CC1 the screen gave LdMetRS: 7.94%; Mtb heat-shock: 21.75%.